# Screening data, single-dose tests

Sequences of proteins named here, by UniProt entry; tags and fusion partners are left off.
UniProt I6X8D2, whole entry: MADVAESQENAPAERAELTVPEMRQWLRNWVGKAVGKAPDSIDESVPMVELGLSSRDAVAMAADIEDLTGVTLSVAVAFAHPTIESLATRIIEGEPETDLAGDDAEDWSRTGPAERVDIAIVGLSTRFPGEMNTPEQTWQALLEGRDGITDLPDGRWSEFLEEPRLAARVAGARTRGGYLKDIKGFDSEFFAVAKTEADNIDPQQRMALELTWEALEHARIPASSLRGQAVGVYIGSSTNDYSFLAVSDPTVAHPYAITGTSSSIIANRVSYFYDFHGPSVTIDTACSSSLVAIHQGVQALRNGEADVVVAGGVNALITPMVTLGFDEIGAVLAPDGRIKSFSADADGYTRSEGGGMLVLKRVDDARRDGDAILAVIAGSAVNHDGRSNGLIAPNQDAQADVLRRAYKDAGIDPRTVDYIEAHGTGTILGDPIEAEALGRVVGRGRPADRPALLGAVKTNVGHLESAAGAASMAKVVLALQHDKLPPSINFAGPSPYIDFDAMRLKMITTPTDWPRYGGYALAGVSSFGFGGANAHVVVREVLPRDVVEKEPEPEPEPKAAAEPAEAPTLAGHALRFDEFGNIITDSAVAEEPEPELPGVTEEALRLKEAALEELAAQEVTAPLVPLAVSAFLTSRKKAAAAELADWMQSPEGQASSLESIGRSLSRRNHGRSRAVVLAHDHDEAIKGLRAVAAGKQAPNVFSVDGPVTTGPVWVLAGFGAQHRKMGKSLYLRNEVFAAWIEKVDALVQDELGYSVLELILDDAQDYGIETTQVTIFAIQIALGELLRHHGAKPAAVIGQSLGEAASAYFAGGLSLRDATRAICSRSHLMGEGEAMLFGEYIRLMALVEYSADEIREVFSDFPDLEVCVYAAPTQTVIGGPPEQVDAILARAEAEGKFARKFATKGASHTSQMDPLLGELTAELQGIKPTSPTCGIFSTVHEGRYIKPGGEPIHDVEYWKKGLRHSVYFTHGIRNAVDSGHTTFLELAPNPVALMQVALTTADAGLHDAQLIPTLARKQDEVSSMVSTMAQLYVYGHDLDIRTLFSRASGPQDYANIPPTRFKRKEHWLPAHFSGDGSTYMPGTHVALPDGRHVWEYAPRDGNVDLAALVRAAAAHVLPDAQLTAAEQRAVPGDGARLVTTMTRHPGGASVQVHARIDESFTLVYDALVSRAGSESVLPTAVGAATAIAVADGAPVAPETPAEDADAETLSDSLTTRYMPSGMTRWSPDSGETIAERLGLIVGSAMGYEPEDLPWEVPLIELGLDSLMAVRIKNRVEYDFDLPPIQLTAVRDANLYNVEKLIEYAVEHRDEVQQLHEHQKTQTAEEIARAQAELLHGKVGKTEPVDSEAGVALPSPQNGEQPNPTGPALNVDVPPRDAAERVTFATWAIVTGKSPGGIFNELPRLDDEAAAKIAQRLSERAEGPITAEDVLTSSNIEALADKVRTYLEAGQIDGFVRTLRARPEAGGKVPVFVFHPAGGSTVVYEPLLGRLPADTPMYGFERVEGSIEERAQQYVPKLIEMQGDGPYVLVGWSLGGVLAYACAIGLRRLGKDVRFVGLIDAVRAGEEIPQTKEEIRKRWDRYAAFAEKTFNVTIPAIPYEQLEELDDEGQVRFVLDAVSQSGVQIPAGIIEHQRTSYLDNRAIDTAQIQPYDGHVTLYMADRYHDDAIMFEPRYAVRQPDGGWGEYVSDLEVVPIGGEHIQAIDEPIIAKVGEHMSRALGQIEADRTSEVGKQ

Source: ChEMBL document CHEMBL3988442, “University of Dundee, Small-Polar-MMV Screening Library” (2021).

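Enzyme assay of the thioesterase domain of polyketide synthase 13; the read-out is not stated. Target: Polyketide synthase Pks13, Mycobacterium tuberculosis (UniProt I6X8D2). Compounds at 30 µM. The record gives no direction; the compounds picked for IC50 retests had high values, so higher reads as stronger inhibition. Of about 67,000 compounds tested this way, about 300 (0.46%) reached 50% or more in at least one test.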

Results are given as percent effect.
The record does not define 0% and 100%; most values in the screen are far below 50% and negative numbers occur (in some assays of this library far below -100).
The compounds are a random part of those screened.

With CCC(CC)C(=O)NCC1(NC(C)c2ccccc2)CCOCC1 (centres unmarked) the screen gave 1.867%. Cc1c[nH]c(C(=O)N2CCC(c3nnc(CN(C)CCO)n3C)CC2)c1 gave 0.7455%. CCc1nc2c(c(C)c(C)n2Cc2cccnc2)c(N)c1C gave -6.36%. For COc1ccc(OC)c(-c2nc(CN(C)Cc3nonc3C)c(C)o2)c1 the result was 14.51%.

With Cc1cnn(CC2CCCN2C(=O)c2cc3c(F)cccc3[nH]2)c1 (centres unmarked) the screen gave -19.23%. With Cc1c(C)n2c(SCC(=O)N3CCCCC3)nnc2[nH]c1=O the screen gave -21.08%. With Cn1cc(CNCC2(N3CCCCC3)Cc3ccccc3C2)cn1 the screen gave -13.64%. O=C(NCCc1ccn(-c2ccc(F)cc2)n1)C1CCCOC1 (centres unmarked) gave -4.528%.

For CNc1ccc(C(=O)N(C)Cc2ccc3ccccc3n2)cn1 the result was -27.02%. With O=C(c1cnc(Nc2ccccc2)nc1)N1CCC(O)(CO)CC1 the screen gave -1.963%. With CCc1nc(CCNC(=O)Nc2ccc(C(=O)NC)cc2)cs1 the screen gave -3.831%. For COc1ccc2c(C)nc(N3C[C@@H](C)O[C@@H](C)C3)nc2c1 the result was -10.62%.

Cc1nn(CC(=O)Nc2ccon2)cc1Br gave 2.374%. Result for O=C(NCC1CC1)C1CCC2(CN(C(=O)c3ccno3)C2)O1 (centres unmarked) was -15.11%. CN(C)C(=O)c1sc2ncccc2c1C1CNCCO1 (centres unmarked) gave -19.62%. CC(C)CN1CC[C@@H]2[C@H](CC1)N(C(=O)c1ccccc1)CCS2(=O)=O gave 12.68%.

Cc1cc(C(=O)NCC(O)c2c(Cl)cccc2Cl)nn1C (centres unmarked) gave 9.157%. CCc1noc(C2CCCCN2C(=O)c2cccnc2)n1 (centres unmarked) gave -5.379%. COc1cc(CNC(C)c2cccc(Cl)c2)cc(OC)c1OC (centres unmarked) read -4.467%. O=C(Nc1ccccc1)N1CCn2nnc(COc3cccnc3)c2C1 read -4.678%.

With Cc1nn(C)cc1CN1CCCC(n2c(=O)oc3ccccc32)C1 (centres unmarked) the screen gave 5.377%. COCC1CCN(C(=O)c2cn(Cc3ccccc3F)nn2)CC1 read -18.4%. O=C1CC(c2cccs2)c2snc(C(=O)O)c2N1 (centres unmarked) gave -6.829%. CC1N(c2cnn(C)c2)C(=O)COC12CCN(CC1CC1)CC2 (centres unmarked) read 2.379%.

2 of the entries, repeated:

SMILES,Percent Effect
COc1ccc2c(C)nc(N3C[C@@H](C)O[C@@H](C)C3)nc2c1,-10.62%
COc1ccc(OC)c(-c2nc(CN(C)Cc3nonc3C)c(C)o2)c1,14.51%